Positions count from the first letter of the chain named. These are yes or no findings as the source states them, for the method shown. Some results given as binding are weak or reduced against the parent protein; the word gives no strength.
B1: Fab' DR106-2 (Fab, V domains shown)
VH: EVQLVQSGAEVKKPGASVKVSCKASGYTFTSYTMHWVRQAPGQGLEWMGWIYPGGGYTKYAQKFKGRVTMTGDTSTSTVYMELSSLRSEDTAVYYCARHEEGIYFDKWGQGTLVTVSS
VL: DIVMTQSPDSLAASLGEKATINCKSSQSFLGSSNGKNYVAWYQQKPGQPPKLLIYWASMRVSGVPDRFSGSGSGTDFTLTISSLQAEDVAVYYCQQHYITPFTFGQGTKLEIK
B2: Fab' DR114-1 (Fab, V domains shown)
VH: B1 VH
VL: DIQLTQSPSSLSASVGDRVTITCRASQDVSGALAWYQQKPGQPPKLLIYWASTRESGVPDRFSGSGSGTDFTLTISSLQAEDVAVYYCQQHYITPFTFGQGTKLEIK
B3: Fab' DR112-1 (Fab, V domains shown)
VH: B1 VH
VL: B1 VL with K18R, M59T, V61E

The chains behind the UniProt entries cited, without tags or fusion partners. Residues count along the entry.
UniProt O14763, residues 56-182: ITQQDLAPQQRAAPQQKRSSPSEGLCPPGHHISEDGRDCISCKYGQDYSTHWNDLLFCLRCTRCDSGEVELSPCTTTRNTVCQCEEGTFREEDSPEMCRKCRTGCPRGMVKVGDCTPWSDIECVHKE

Each binder was assayed against recombinant DR5 antigen (human) (UniProt O14763) (assay: bio-layer interferometry (ForteBio Octet), biotinylated antigen on neutravidin sensors).

binding, binds:
B1, B2, B3

From patent WO2008154439A1
